Patent US20060089318A1, “Inhibitors of adp-ribosyl transferases, cyclases, and hydrolases” (priority 2002, published 2006)
The source holds more than one record for some entries. This list holds those alone. There may be further records. Results that share an entry differ, and nothing given here explains why; dose, time, organism, isomer or construct need not be as stated for each record.

Protein sequences, listed by entry. Tags and fused reporters are not part of them. Residues count along the entry.
UniProt P28907, 43-300 limits assumed: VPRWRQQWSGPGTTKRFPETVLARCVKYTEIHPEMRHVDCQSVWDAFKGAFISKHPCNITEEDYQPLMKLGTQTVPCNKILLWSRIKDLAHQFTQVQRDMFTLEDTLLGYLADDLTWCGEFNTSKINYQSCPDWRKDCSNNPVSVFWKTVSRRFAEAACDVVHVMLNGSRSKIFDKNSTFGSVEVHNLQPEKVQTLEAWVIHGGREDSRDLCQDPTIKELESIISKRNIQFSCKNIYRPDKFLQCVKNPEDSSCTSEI

Target: human CD38 (Homo sapiens, UniProt P28907)
Experiment: Competitive and slow-onset inhibition of CD38-catalyzed conversion of NGD+ to cGDPR (295 nm absorbance)
Assay type: biochemical
Settings: 19° C.; fit to slow-onset equation; listed as 2
Description: Determination of Ki and kon by competitive method. To 1 mL solutions of 50 mM potassium phosphate pH 7.2 and 100 μM NGD^+ containing, 50, 25, 12.5, and 6.25 and 0 μM inhibitor 1 was added 2 μL of 7 μM CD38. Reaction progress upon initiation by enzyme addition was monitored by measurement of […] absorbance. The initial slopes were used to determine the Ki value, and all points of the experiment were fit to the equation A(t)=vt+(b−v)(1−exp(−kt))/k+A0 where k is the observed rate constant, b is the initial rate, v is the final rate and A0 is the initial absorbance was used to evaluate kon.
Determination of Competitive Inhibition by Initial Rates: The inhibitors 1-3 were evaluated for inhibition of CD38 enzymatic activity using a spectrophotometric assay. CD38 catalyzes the conversion of NGD^+ to cyclic-GDP ribose (cGDPR, Scheme 4) and product formation can be monitored by 295 nm absorbance measurement. […]
Slow Phase Inhibition. […] The “slow-onset” absorbance curves could be fit using the equation At=vit+(vi−vf)(1−exp(−kt))/k+A0 where At is absorbance, vi is initial velocity, vf is final velocity, t is time in s, k is the rate of the slow onset process and A0 is absorbance of the sample at initial time. […] The rate constant for the slow phase could be obtained from the average value of k determined from the separate fits. […]

Cc1cc(C(N)=O)c[n+]([C@H]2C[C@H](O)[C@@H](CO)O2)c1 [inhibitor 2, β-5-methyl-nicotinamide-2′-deoxyriboside]
kon (rate constant of slow-onset phase of inhibition): 0.0083±0.002 s^−1 and 0.008 s^−1
